In the supplement of paper PMC11060735:
Structures can show the parent of a compound that is named as a salt. ± gives the standard deviation of the averaged measurements. Over roughly 1,800 compounds, “GFP- (p16Ink4a-) cell count relative to negative-control wells” has its median near 0.99; the lowest 2% begin near 0.5. This is one part of the list.

Test system: mouse p16Ink4a+/- lung fibroblasts (INKBRITE, bleomycin-injured)
Test: GFP- (p16Ink4a-) cell count relative to negative-control wells (fold of vehicle); higher = more p16Ink4a- cells surviving
Details: 1 µM; 3 days

Compound	GFP-
O=C(Nc1ccccc1)N1CCN(c2nc(-c3ccccc3)ns2)CC1	1.01
CN1CCN(S(=O)(=O)c2ccc(-c3cnc(N)c(C(=O)Nc4cccnc4)n3)cc2)CC1	0.998
C=CC(=O)Nc1ccc2ncnc(Nc3cccc(Br)c3)c2c1	0.994
CCC(C)(Oc1ccc(C2(c3ccc(OC(C)(CC)C(=O)O)cc3)CCCCC2)cc1)C(=O)O (configuration not stated) [Clinofibrate]	0.881
NC(=O)Nc1cc(-c2cccc(F)c2)sc1C(=O)N[C@H]1CCCNC1	0.751
O=C(NCCN1CCOCC1)c1ccc(Cl)cc1 [Moclobemide]	0.85
c1coc(CNc2ncnc3[nH]cnc23)c1 [Kinetin]	0.99
Oc1ccc(-c2nc(-c3ccc(F)cc3)c(-c3ccncc3)[nH]2)cc1	1.02
Cc1cc(C(C)Nc2ccccc2)c2nc(N3CCOCC3)cc(=O)n2c1 (configuration not stated)	0.905
O=NN(CCCl)C(=O)NC1CCCCC1 [Lomustine]	1.02
CO/N=C(/C(=O)N[C@@H]1C(=O)N2C(C(=O)O)=C(CSC(=O)c3ccco3)CS[C@H]12)c1csc(N)n1 [Ceftiofur HCl]	1.04
O=C(Nc1ccc(-c2ccnc(Nc3ccc(N4CCOCC4)cc3)n2)cc1)[C@@H]1CCCN1	1.047 ± 0.0043
COC(=O)[C@H](Cc1ccccc1)NC(=O)[C@@H](N)CC(=O)O [Aspartame]	0.966
CCNC(=O)c1noc(-c2cc(C(C)C)c(O)cc2O)c1-c1ccc(CN2CCOCC2)cc1 [Luminespib (NVP-AUY922)]	0.542
Cn1cnc([N+](=O)[O-])c1Sc1ncnc2[nH]cnc12 [Azathioprine]	0.954
Oc1c(Cl)cc(Cl)c2cccnc12 [Chloroxine]	0.809
COc1cc([C@@H]2c3cc4c(cc3[C@@H](O[C@@H]3O[C@@H]5CO[C@@H](C)O[C@H]5[C@H](O)[C@H]3O)[C@H]3COC(=O)[C@H]23)OCO4)cc(OC)c1O [Etoposide]	0.985
O=C(O)CCNC(=O)c1ccccc1 [Betamipron]	1.06
CC(C)OC(=O)C(C)(C)Oc1ccc(C(=O)c2ccc(Cl)cc2)cc1 [Fenofibrate]	0.949
O=C1[C@H](CC[C@H](O)c2ccc(F)cc2)[C@@H](c2ccc(O)cc2)N1c1ccc(F)cc1 [Ezetimibe]	0.992
COc1cc(C2Oc3ccc(C4Oc5cc(O)cc(O)c5C(=O)C4O)cc3OC2CO)ccc1O (configuration not stated) [Silymarin]	1.04
CC(C)(C)c1ccc(-c2nc3ccccc3[nH]2)cc1	1.08
NC(=O)[C@@H](CCC(F)(F)F)N(Cc1ccc(-c2ncon2)cc1F)S(=O)(=O)c1ccc(Cl)cc1 [Avagacestat]	0.921
COC(=O)[C@H]1[C@H]2C[C@@H]3c4[nH]c5cc(OC)ccc5c4CCN3C[C@H]2C[C@@H](OC(=O)c2cc(OC)c(OC)c(OC)c2)[C@@H]1OC [Reserpine]	0.806
C#C[C@]1(OC(C)=O)CC[C@H]2[C@@H]3CCC4=C[C@@H](OC(C)=O)CC[C@@H]4[C@H]3CC[C@@]21C [Ethynodiol Diacetate]	0.914
Cc1ccc(C(=O)Nc2cccc(C(F)(F)F)c2)cc1Nc1nc(-c2cccnc2)nc2c1cnn2C	0.964

Compound	GFP-
C[C@@](Cc1ccc(O)c(O)c1)(NN)C(=O)O [S-(-)-carbidopa, Carbidopa]	0.981
COC(=O)[C@]12CCC(C)(C)C[C@@H]1[C@@H]1C(=O)C=C3[C@]4(C)C=C(C#N)C(=O)C(C)(C)[C@@H]4CC[C@@]3(C)[C@]1(C)CC2 [Bardoxolone Methyl]	0.406
Cc1c(-c2ccc(O)cc2)n(Cc2ccc(OCCN3CCCCCC3)cc2)c2ccc(O)cc12 [Bazedoxifene]	0.948
Nc1nc(Cl)nc2c1ncn2[C@H]1C[C@H](O)[C@@H](CO)O1 [Cladribine]	0.779
CC(=O)c1c(C)c2cnc(Nc3ccc(N4CCNCC4)cn3)nc2n(C2CCCC2)c1=O [Palbociclib]	0.847
COC(=O)Nc1nc2cc(Sc3ccccc3)ccc2[nH]1 [Fenbendazole]	0.741
CN1C(CCl)Nc2cc(Cl)c(S(N)(=O)=O)cc2S1(=O)=O (configuration not stated) [Methyclothiazide]	0.898
C#C[C@]1(O)CC[C@H]2[C@@H]3CCc4cc(O)ccc4[C@H]3CC[C@@]21C [Ethinyl Estradiol]	1.04
CC(C(=O)O)c1ccc2c(c1)Cc1cccnc1O2 (configuration not stated) [Pranoprofen]	1.17
CCOC(=O)[C@H](CCc1ccccc1)N[C@@H](C)C(=O)N1Cc2cc(OC)c(OC)cc2C[C@H]1C(=O)O [Moexipril]	0.982
CC(C(=O)O)c1cccc(C(=O)c2ccccc2)c1 (configuration not stated) [Ketoprofen]	1.03
Nc1ccc(S(=O)(=O)Nc2ccccn2)cc1 [Sulfapyridine]	0.965
C=C1c2cccc(O)c2C(O)=C2C(=O)[C@]3(O)C(O)=C(C(N)=O)C(=O)[C@@H](N(C)C)[C@@H]3[C@@H](O)[C@H]12 [Methacycline]	1.03
CC(C)CCN1c2nc(Nc3cc(F)c(O)c(F)c3)ncc2N(C)C(=O)C1C (configuration not stated)	0.995
CO/N=C(/C(=O)N[C@H]1C(=O)N2C(C(=O)O)=C(Cn3ccc(=N)n3CCO)CS[C@H]12)c1csc(N)n1 [Cefoselis Sulfate]	0.918
Cc1cccc(-c2[nH]c(C(C)(C)C)nc2-c2ccc3c(c2)OCO3)n1	0.933
CCOC(=O)[C@H]1O[C@@H]1C(=O)N[C@@H](CC(C)C)C(=O)NCCC(C)C [Aloxistatin]	0.833
Nc1ncnc2[nH]nc(Nc3ccc(F)cc3)c12	0.966
CCn1cc(C(=O)O)c(=O)c2cc(F)c(N3CCNC(C)C3)c(F)c21 (configuration not stated) [Lomefloxacin]	1.07
O=C1c2ccc(Nc3ccc(F)cc3F)cc2CCc2ccc(OC[C@H](O)CO)cc21 [Skepinone-L]	1.11
COc1ccc(-c2coc3cc(O)cc(O)c3c2=O)cc1 [Biochanin A]	1.12
CCOc1cc([C@@H](CS(C)(=O)=O)N2C(=O)c3cccc(NC(C)=O)c3C2=O)ccc1OC [Apremilast]	0.919
CC(C)N(CCC(=O)c1ccc2ccccc2c1)Cc1ccccc1	0.897 ± 0.031
Nc1ccc(S(=O)(=O)Nc2ncccn2)cc1 [Sulfadiazine]	0.885
O=C(O)CCCC[C@@H]1SC[C@@H]2NC(=O)N[C@@H]21 [Biotin, Vitamin B7]	1.14
CNCCc1ccccn1 [Betahistine]	1.04

Structures shown so far with a tert-butyl group (2):
Compound	GFP-
CC(C)(C)c1ccc(-c2nc3ccccc3[nH]2)cc1	1.08
Cc1cccc(-c2[nH]c(C(C)(C)C)nc2-c2ccc3c(c2)OCO3)n1	0.933

Next part

Compound	GFP-
CC(=O)O[C@]1(C(C)=O)CC[C@H]2[C@@H]3C[C@H](C)C4=CC(=O)C=C[C@]4(C)[C@@]3(F)[C@@H](O)C[C@@]21C [Fluorometholone Acetate]	1.14
NCCCCCC(=O)O [Aminocaproic Acid]	0.867
CC(C)CCNC(=O)[C@H](CC(C)C)NC(=O)[C@H]1O[C@@H]1C(=O)O [Loxistatin Acid]	0.941
Cc1ccnc2c1NC(=O)c1cccnc1N2C1CC1 [Nevirapine]	1.06
CC[C@@H]([C@H](C)O)n1ncn(-c2ccc(N3CCN(c4ccc(OC[C@@H]5CO[C@@](Cn6cncn6)(c6ccc(F)cc6F)C5)cc4)CC3)cc2)c1=O [Posaconazole]	1.04
Oc1cc2c(cc1O)[C@@H]1c3ccc(O)c(O)c3OC[C@]1(O)C2 [Hematoxylin]	0.962
CCCCCCCN(CC)CCCC(O)c1ccc(NS(C)(=O)=O)cc1 (configuration not stated) [Ibutilide]	0.957
COc1ccccc1N1CCN(CCN2C(=O)CC3(CCCC3)CC2=O)CC1 [Bmy 7378 Dihydrochloride]	1.05
Cc1ccc(-n2nc(C)c(N=Nc3cccc(-c4cccc(C(=O)O)c4)c3O)c2O)cc1C [Eltrombopag]	0.82
O=C(NS(=O)(=O)c1ccc(Br)s1)c1ccc(Cl)cc1Cl [Tasisulam]	1.08
CNCc1ccc(-c2[nH]c3cc(F)cc4c3c2CCNC4=O)cc1 [Rucaparib]	0.817 ± 0.037
CCNC(=O)CCC/C=C\C[C@@H]1[C@@H](/C=C/C(O)CCc2ccccc2)[C@@H](O)C[C@@H]1O (some centres not stated) [Bimatoprost]	1.14
OC[C@H]1O[C@@H](Oc2cc(O)cc(/C=C/c3ccc(O)cc3)c2)[C@H](O)[C@@H](O)[C@@H]1O [Piceid]	1.05
CCCNC(=O)NS(=O)(=O)c1ccc(Cl)cc1 [Chlorpropamide]	0.949
O=C1NCC2(CCN(CCc3ccccc3)CC2)O1 [Fenspiride]	1.05
CNCCCC12CCC(c3ccccc31)c1ccccc12 [Maprotiline]	0.984
CCCOc1ccc2[nH]c(NC(=O)OC)nc2c1 [Oxybendazole, Oxibendazole]	0.885
CN(C)c1ccc(-c2nc3c(N4CCN(CC(=O)Nc5nccs5)CC4)c(Cl)cnc3[nH]2)cc1	0.866 ± 0.052
O=C(O)Cc1cc(I)c(Oc2ccc(O)c(I)c2)c(I)c1 [Tiratricol]	0.974
C[C@@H]1O[C@@H](Oc2c(-c3cc(O)c(O)c(O)c3)oc3cc(O)cc(O)c3c2=O)[C@H](O)[C@H](O)[C@H]1O [Myricitrin]	0.967
CCCCCCCCOc1ccccc1C(=O)Nc1ccc(C(=O)OCC[N+](C)(CC)CC)cc1 [Otilonium Bromide]	0.987
C[C@H]1[C@H](O)O[C@@H]2O[C@@]3(C)CC[C@H]4[C@H](C)CC[C@@H]1[C@@]24OO3 [Dihydroartemisinin (DHA)]	0.83
O=C(c1cc(Cc2nnc(O)c3ccccc23)ccc1F)N1CCN(C(=O)C2CC2)CC1 [Olaparib]	0.867 ± 0.069
COC(=O)C1=CO[C@@H](O)[C@@H]2C(CO)=CC[C@H]12 [Genipin]	1.09
CCC(C)n1ncn(-c2ccc(N3CCN(c4ccc(OC[C@H]5CO[C@](Cn6cncn6)(c6ccc(Cl)cc6Cl)O5)cc4)CC3)cc2)c1=O (some centres not stated) [Itraconazole]	1.14

Entries above containing a furan ring, fused or not (two):
Compound	GFP-
c1coc(CNc2ncnc3[nH]cnc23)c1 [Kinetin]	0.99
CO/N=C(/C(=O)N[C@@H]1C(=O)N2C(C(=O)O)=C(CSC(=O)c3ccco3)CS[C@H]12)c1csc(N)n1 [Ceftiofur HCl]	1.04

Ordered by count of non-hydrogen atoms (low to high): some entries from above.
Compound	GFP-
C[C@H]1[C@H](O)O[C@@H]2O[C@@]3(C)CC[C@H]4[C@H](C)CC[C@@H]1[C@@]24OO3 [Dihydroartemisinin (DHA)]	0.83
CCC(C)n1ncn(-c2ccc(N3CCN(c4ccc(OC[C@H]5CO[C@](Cn6cncn6)(c6ccc(Cl)cc6Cl)O5)cc4)CC3)cc2)c1=O (some centres not stated) [Itraconazole]	1.14
CC[C@@H]([C@H](C)O)n1ncn(-c2ccc(N3CCN(c4ccc(OC[C@@H]5CO[C@@](Cn6cncn6)(c6ccc(F)cc6F)C5)cc4)CC3)cc2)c1=O [Posaconazole]	1.04
